Measured values published in article doi:10.1101/2023.07.25.550448.
No constants are given. Whether binding was seen depends on the method and setting. For some of these results: Binding seen in cells or lysates may run through a third protein. Some entries that bind do so weakly or less than the wild type. For some of these results: Tags and fused reporters may be left off the sequences shown.

Sequences of proteins named here, by UniProt entry; tags and fusion partners are left off. A change or cut given only in a name is not applied to a line headed by its entry. A line that says so, or that is headed by a name, gives the form on record, which may keep a tag or linker.
His6-p97 Y143A (P55072, form named): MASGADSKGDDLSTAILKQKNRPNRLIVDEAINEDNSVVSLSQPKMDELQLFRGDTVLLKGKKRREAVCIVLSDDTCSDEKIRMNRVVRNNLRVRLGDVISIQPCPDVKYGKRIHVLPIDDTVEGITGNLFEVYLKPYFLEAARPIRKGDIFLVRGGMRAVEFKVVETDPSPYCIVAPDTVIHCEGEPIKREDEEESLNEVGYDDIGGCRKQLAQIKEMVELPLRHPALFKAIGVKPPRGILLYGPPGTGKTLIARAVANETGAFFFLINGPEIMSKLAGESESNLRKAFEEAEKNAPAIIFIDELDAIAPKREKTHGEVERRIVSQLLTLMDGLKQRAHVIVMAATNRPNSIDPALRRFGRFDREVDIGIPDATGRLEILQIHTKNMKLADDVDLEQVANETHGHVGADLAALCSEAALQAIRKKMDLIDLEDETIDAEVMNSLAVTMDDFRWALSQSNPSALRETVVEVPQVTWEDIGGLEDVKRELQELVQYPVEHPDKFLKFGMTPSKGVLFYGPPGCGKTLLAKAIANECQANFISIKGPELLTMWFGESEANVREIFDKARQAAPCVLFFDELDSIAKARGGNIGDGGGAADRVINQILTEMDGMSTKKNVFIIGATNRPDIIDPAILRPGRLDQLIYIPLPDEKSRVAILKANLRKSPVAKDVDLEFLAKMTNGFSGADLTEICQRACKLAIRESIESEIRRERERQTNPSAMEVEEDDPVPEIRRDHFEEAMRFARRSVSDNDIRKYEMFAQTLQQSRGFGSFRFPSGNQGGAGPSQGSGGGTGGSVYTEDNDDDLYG

How the values were obtained:
His6-p47 = target: T1, His6-p47 (UniProt Q9UNZ2); experiment: co-IP
T1 sequence: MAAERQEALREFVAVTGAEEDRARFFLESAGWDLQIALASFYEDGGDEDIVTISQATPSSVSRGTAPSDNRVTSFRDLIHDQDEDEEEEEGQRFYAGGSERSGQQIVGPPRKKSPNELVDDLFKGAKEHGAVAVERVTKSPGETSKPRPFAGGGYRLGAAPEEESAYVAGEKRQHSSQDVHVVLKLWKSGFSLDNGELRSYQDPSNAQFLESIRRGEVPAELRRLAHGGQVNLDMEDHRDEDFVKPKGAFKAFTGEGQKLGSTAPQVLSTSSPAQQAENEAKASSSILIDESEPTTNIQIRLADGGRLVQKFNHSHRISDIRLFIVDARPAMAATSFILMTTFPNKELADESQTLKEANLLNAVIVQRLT

VCF1-3 peptide (human) = experiment: pull-down
VCF1-1 peptide (human) = experiment: pull-down
VCF1-4 peptide (human) = experiment: pull-down
VCF1-5 peptide (human) = experiment: pull-down
VCF1-2 peptide (human) = experiment: pull-down

Row | Substance | binding (His6-p47) | binding (VCF1-3 peptide (human)) | binding (VCF1-1 peptide (human)) | binding (VCF1-4 peptide (human)) | binding (VCF1-5 peptide (human)) | binding (VCF1-2 peptide (human))
1 | His6-p97 WT (from UniProt P55072 1-806) | binds | – | – | – | – | –
2 | His6-p97 Y143A (from UniProt P55072 1-806) | binds | – | – | – | – | –
3 | p97 (endogenous, U2OS) (from UniProt P55072 1-806) | – | no binding | no binding | no binding | no binding | no binding
